# Source: PubChem BioAssay AID1439 (NMMLSC, 2008)
# The chains behind the UniProt entries cited, without tags or fusion partners.
# UniProt P09471, whole entry, looked up: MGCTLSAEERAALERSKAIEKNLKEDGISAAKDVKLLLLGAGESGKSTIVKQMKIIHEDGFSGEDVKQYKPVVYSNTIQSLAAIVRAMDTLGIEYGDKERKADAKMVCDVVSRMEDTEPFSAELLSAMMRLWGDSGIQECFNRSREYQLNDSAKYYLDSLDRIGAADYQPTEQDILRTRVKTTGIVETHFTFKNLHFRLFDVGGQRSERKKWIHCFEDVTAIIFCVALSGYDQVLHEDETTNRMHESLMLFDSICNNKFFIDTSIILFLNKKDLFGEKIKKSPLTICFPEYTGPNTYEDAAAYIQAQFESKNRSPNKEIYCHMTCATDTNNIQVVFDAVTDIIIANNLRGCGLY
# Among all 220,000 compounds or so, about 770 (0.35%) were called active. The shares of active, inactive and inconclusive entries below differ from those in the screen. No stated cut-off is given here; in the data, active means binding response below about 49% or above about 150%; inconclusive means no clear call, values can overlap the other calls; inactive means in between.
# Molecular target: Guanine nucleotide-binding protein G(o) subunit alpha (Homo sapiens) (UniProt P09471)
# Test: RGS7-Galphao binding modulators, primary screen, biochemical, multiplexed bead flow cytometry (AID 1439);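 further: fluorescent Galphao held in activated GDP-AlF4 state binding bead-coupled RGS7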
# Conditions: at 10 µM, actives lie on both sides
row,Structure (SMILES),binding response (% of control)
1,NC(=O)C1CCCN1 (configuration not stated),inconclusive: 97.6%
2,COc1ccc(OC)c(NC(=O)C2CCC(CNc3c(N4CCOCC4)c(=O)c3=O)CC2)c1 (configuration not stated),inconclusive: 121%
3,Cc1cc(/C=C2\SC(=S)NC2=O)cc(C)c1O,inconclusive: 134%
4,Cc1ccc(NC(=O)Cn2cnc3cc([N+](=O)[O-])ccc3c2=O)cc1,inconclusive: 115%
5,CCOC(=O)c1c(C)[nH]c(C)c1C(=O)CSc1nnc(N)s1,inconclusive: 96.7%
6,CN(C)n1cccc1/C=C(\C#N)S(=O)(=O)c1cccc(Cl)c1,inconclusive: 117%
7,CC(C)(C)NC(=S)NC1CC1,inconclusive: -593%
8,O=C(/C=C/c1cccs1)N1CCN(c2ccc(F)cc2)CC1,inconclusive: 69.8%
9,CCCC(=O)c1cc2c(cc1NC(=O)CC)OCCO2,inconclusive: 145%
10,CCC1(C(=O)OC)CCc2c(cc(OC)c3ccccc23)C1=O (configuration not stated),inconclusive: 100%
11,O=S1(=O)CCN(Cc2csc(-c3cccs3)n2)CC1,inconclusive: 118%
12,CNC(=O)c1ccc(-c2nc(-c3ccccc3)cs2)cc1,inconclusive: 121%
13,N/C(=N\NC(=O)Nc1ccc(Cl)cc1)c1ccccn1,inconclusive: 134%
14,CC(Nc1n[nH]c(=O)[nH]c1=O)C(=O)N/N=C/c1cccs1 (configuration not stated),inactive: 96.9%
15,O=C(NC(=O)N1CCCC1)c1csnn1,inconclusive: 98.2%
16,COc1ccc(OC)c(C(=O)CSc2nc3ccccc3n2CC(=O)NC(C)(C)C)c1,inactive: 106%
17,CNC(=O)c1sc(Nc2cc(C)ccc2C)nc1C,inconclusive: 101%
18,O=C(NCCCl)Nc1ccc(Cl)c([N+](=O)[O-])c1,inconclusive: 109%
19,O=S(=O)(c1ccccc1)c1ncc(C(F)(F)F)cc1Cl,active: 11.5%
20,O=c1c(Cl)c(NCc2ccccc2)cnn1C12CC3CC(CC(C3)C1)C2,inactive: 106%
21,CNC(=S)NNC(=O)c1ccc(N(C)C)cc1,inconclusive: 97.5%
22,CC(C)c1onc(C(=O)N2CCN(c3ccccc3)CC2)c1[N+](=O)[O-],inconclusive: 128%
23,Cc1ccc(-n2cc(C(=O)O)c(=O)cc2C)c(C)c1,inconclusive: 80.7%

# Single entries from above:
# Value of O=C(NCCCl)Nc1ccc(Cl)c([N+](=O)[O-])c1 under binding response (% of control): inconclusive: 109%
# Value of CC(C)c1onc(C(=O)N2CCN(c3ccccc3)CC2)c1[N+](=O)[O-] under binding response (% of control): inconclusive: 128%
# Value of NC(=O)C1CCCN1 (configuration not stated) under binding response (% of control): inconclusive: 97.6%
# Value of O=S1(=O)CCN(Cc2csc(-c3cccs3)n2)CC1 under binding response (% of control): inconclusive: 118%
# Value of Cc1ccc(NC(=O)Cn2cnc3cc([N+](=O)[O-])ccc3c2=O)cc1 under binding response (% of control): inconclusive: 115%

# Next results

row,Structure (SMILES),binding response (% of control)
1,c1coc(CNC2CCCCCCC2)c1,inactive: 141%
2,O=C(Cc1ccccc1)N/N=C/c1cccc([N+](=O)[O-])c1,inconclusive: 99.3%
3,CCOc1ccc(-n2c([S-])c(C(=O)Nc3ccc(S(=O)(=O)N4CCOCC4)cc3)[n+]3cc(C(N)=O)ccc23)cc1,inconclusive: 122%
4,O=[N+]([O-])c1ccc(Oc2cccnc2)nc1,inconclusive: -335%
5,O=C(Cn1[nH]c(=O)c2ccccc2c1=O)NNC(=O)c1ccccc1,inactive: 101%
6,Cc1cc(C)n(C2CC(=O)N(c3cc(Cl)cc(Cl)c3)C2=O)n1 (configuration not stated),inconclusive: 138%
7,COC(=O)c1ccc(N2C(=O)Nc3ccccc3N2O)cc1,inactive: 93.6%
8,CCOC(=O)c1cnc(Nc2ccccc2)nc1C(F)(F)F,inconclusive: 90%
9,COc1ccc(C(=O)NCCc2nc3cc([N+](=O)[O-])ccc3n2C)cc1,inconclusive: 105%
10,COc1ccc(NS(=O)(=O)c2ccc(Oc3ncccn3)cc2)cc1,inactive: 94%
11,COc1cccc(C(=O)Nc2cccc3c2ccc2cccn23)c1,inactive: 98.8%
12,Cc1cc(-n2cnc3c(=O)[nH]cnc32)ccc1N,inconclusive: 112%
13,O=C(CSc1nc2ncccc2[nH]1)Nc1ccc2c(c1)OCO2,inconclusive: 109%
14,CCOc1cc(/C=C/C(=O)OCC(=O)NC2CCS(=O)(=O)C2)ccc1OCc1ccccc1 (configuration not stated),inactive: 100%
15,COc1ccc(S(=O)(=O)NNC(N)=S)cc1,inconclusive: 75%
16,CC#CCN1c2ccccc2[C@]23C[C@@H](C(=O)OC)N(C(=O)C4CCC4)C2=NC(C(=O)OC)=C(C(=O)OC)[C@H]13,inconclusive: 109%
17,Cn1c2ccccc2c(=O)c2c(=O)n(Cc3ccco3)c(-c3ccc(C(C)(C)C)cc3)nc21,inconclusive: 126%
18,COc1ccc(CC(=O)O/N=C(\N)c2ccc(OC)cc2)cc1,inconclusive: 105%
19,O=C(Nc1ccccc1)Nc1scc2c1c(=O)oc1ccccc12,inconclusive: 107%
20,O=c1cc(-c2ccc(O)cc2)oc2c(C3OCC(O)C(O)C3O)c(O)c(C3OC(CO)C(O)C(O)C3O)c(O)c12 (configuration not stated),inconclusive: 89.5%
21,COc1ccc2c(c1)CCCC21SC(NC(C)=O)=NN1C(C)=O (configuration not stated),inconclusive: 109%
22,COc1ccc(NC(=O)Nc2ccc(C(=O)N3CCOCC3)cc2)c(OC)c1,inactive: 86.6%
23,C/C(=N\NC(=O)CSc1nc2ccccc2s1)c1ccco1,inactive: 112%

row,Structure (SMILES),binding response (% of control)
1,C/C(N)=C(/C#N)C(=O)CSc1cc(C)c2cc(C)cc(C)c2n1,inconclusive: 83.1%
2,CCO[C@@H]1OC(C(=O)N2CCN(Cc3ccc4c(c3)OCO4)CC2)=C[C@H](c2csc3ccccc23)[C@H]1CCCO,inactive: 100%
3,Cc1ccc(F)c([C@H]2[C@@H]3C=CCC[C@@]3(C)C(=O)N2Cc2ccccc2)c1,inconclusive: 100%
4,COCC(C)NC(=O)C(C)Oc1ccccc1 (configuration not stated),inactive: 99.4%
5,Nc1ncnc(Oc2cccc3cccnc23)c1[N+](=O)[O-],inactive: 103%
6,COc1cc2cc(Oc3ccc4ccc(=O)oc4c3)c(=O)oc2cc1OC(=O)/C=C/c1ccccc1,inconclusive: 125%
7,Cc1nn(CC2CC2)c(=O)n1N(C)c1ncc(C(F)(F)F)cc1Cl,inconclusive: 102%
8,O=C(/C=C/c1ccccc1)Oc1cccc2cccnc12,inconclusive: 132%
9,COc1ccc(N2CCN(CC(=O)c3c[nH]c4ccccc34)CC2)cc1,inconclusive: 107%
10,O=C(NNc1nc2ccccc2s1)Nc1ccc(Cl)c(Cl)c1,inconclusive: 109%
11,Cc1cc(C)n(Cc2ccc(C(=O)NN)o2)n1,inconclusive: -26.5%
12,O=C(NC(=S)Nn1cnnc1)c1ccccc1Br,inconclusive: 89.5%
13,O=C(O)c1cccc2c1C(=O)c1ccccc1C2=O,inconclusive: 86.1%
14,NCCc1nnc(SCC(=O)c2ccc(Cl)cc2)o1,inconclusive: 94.6%
15,CSc1ccccc1NC(=O)COc1ccccc1C,inconclusive: 119%
16,Cc1cccc(C(=O)C2CCOC(C)(C)C2)c1 (configuration not stated),inconclusive: 192%
17,CCOP(=O)(OCC)c1nc(-c2ccc(OC)cc2)oc1N1CCOCC1,inconclusive: 105%
18,CCn1nc(NC(=O)c2ccccc2)c2cc3cccc(C)c3nc21,inconclusive: 128%
19,CCOc1ccc2nc(NC(=O)C3=NN(c4ccccc4)C(=O)CC3)sc2c1,inconclusive: 104%
20,O=C(O)c1ccccc1-c1ccccc1C(=O)Nc1ccc(-c2nc3cc(Cl)ccc3o2)cc1,inconclusive: 120%
21,N#C/C(C(=O)N1CCOCC1)=c1/s/c(=C\c2ccccn2)c(=O)n1-c1ccccc1,inconclusive: 207%
22,O=C(NCCCN1CCOCC1)c1cccc(S(=O)(=O)N2CCc3ccccc3C2)c1,inconclusive: 110%
23,COc1ccc2c(c1)CCC/C2=N\OC(=O)c1ccccc1F,inconclusive: 97.8%

row,Structure (SMILES),binding response (% of control)
1,CC1(C)OC2C(O1)[C@@H](CO)O[C@H]2n1cnc2c(N)ncnc21 (some centres not stated),inconclusive: 101%
2,O=C(COC(=O)c1cc(=O)[nH]c2ccccc12)Nc1nccs1,inconclusive: -9.91%
3,CCOC(=O)C1=C(C)NC(=S)NC1c1cc(C)sc1C (configuration not stated),inconclusive: 87.5%
4,CCOc1ccc(C(=O)N[C@H](C(=O)Nc2ccc(OC)c(S(=O)(=O)N3CCOCC3)c2)C(C)C)cc1,inconclusive: 125%
5,Cc1ccc(C(=O)Nc2ccc(Oc3cccc(C(F)(F)F)c3)nc2)cc1,inconclusive: 243%
6,CCc1nc(C)cc2c1sc1ccccc12,inconclusive: 92.3%
7,COc1cc(NC(=O)C(=O)NCCN2CCNCC2)c(OC)cc1Cl,inactive: 101%
8,CCN(CC)S(=O)(=O)N1CCC(C(=O)NCCC2=CCCCC2)CC1,inactive: 99.7%
9,CCOC(=O)c1ccc(S(=O)(=O)N2CCN(CC(=O)NC(=O)NC3CCCCC3)CC2)cc1,active: 176% [activator]
10,O=C(CSc1cccc2cccnc12)N/N=C/c1cccnc1,inconclusive: 105%
11,CCCc1cc(=O)[nH]c(SCC(=O)c2cc(C)n(CC(F)(F)F)c2C)n1,inconclusive: 85.2%
12,Cc1ccc(S(=O)(=O)c2c(C)nn(C(C)(C)C)c2OC(=O)CC(C)C)cc1,inconclusive: 96.6%
13,CCCn1c(=N)n(CC(O)COc2ccc(C)cc2)c2ccccc21 (configuration not stated),inconclusive: 112%
14,CCOc1ccc(CC(=O)Nc2ccc(NC(=O)c3ccco3)cc2)cc1OCC,active: 20.2%
15,N#CC(c1ccc(Cl)cc1)N1CCOCC1 (configuration not stated),inconclusive: 113%
16,NC(=O)NC(=O)COC(=O)c1sc2ccccc2c1Cl,inconclusive: 94.9%
17,CCOC(=O)Nc1c2ccccc2nc2ccccc12,inconclusive: 58.2%
18,CC(C(=O)NC1CC(C)(C)NC(C)(C)C1)c1ccc([N+](=O)[O-])cc1 (configuration not stated),inconclusive: 88.6%
19,Cc1ccccc1-c1noc(-c2ccccc2C(=O)O)n1,inconclusive: 34.6%
20,Cc1nc(NC(=O)c2ccco2)sc1C(=O)Nc1ccc(Br)cc1,inactive: 99.9%
21,O=C(CCc1ccccc1)NN1C(=O)C2C3C=CC(C3)C2C1=O (configuration not stated),inconclusive: 98.7%
22,Cc1cccc(N2CCN(C(=O)c3cc4n(n3)C(C(F)(F)F)CC(c3ccco3)N4)CC2)c1C (configuration not stated),inactive: 92.3%
23,CCCN(CCC)CC(C)(C)NS(=O)(=O)c1ccc(Cl)cc1,inconclusive: -80.5%
